Laboratory results: PubChem BioAssay AID1053208 (Peter MacCallum Cancer Centre, 2014)

Aim: 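Genes whose silencing cuts survival of bone tumour cells only with doxorubicin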 (primary screen)
Cell system: mouse osteosarcoma cells, early-passage culture from an engineered mouse model of fibroblastic bone tumour
Reagent: siRNA pool against mouse genes, 40 nM
Timing: about 120 h (48 h before drug, then 72 h with drug)
Conditions: doxorubicin 100 nM for 72 h, roughly 30-40% inhibitory dose
Read-out: 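Viability read as ATP luminescence after 72 h of 100 nM doxorubicin or none, duplicate wells averaged, scaled to non-targeting siRNA, then expressed as robust z-scores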
Reading the numbers: viability z-score with doxorubicin: higher = more viable cells under doxorubicin; viability z-score without drug: higher = more viable cells with knock-down alone
Rule for the call: 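Called active if knock-down leaves viability unchanged without drug (z within -2 to 2) but lowers it with doxorubicin (z at or under -2)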
The deposit covers about 17,000 reagents; below is a part drawn at random. 788 of all reagents (4.7%) count as active. 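Calls rest on z-score classes alone; an extra cut-off of viability at most 70% of control was not applied to them.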 A number with no mark means an inactive call. Further read-outs or replicates are left out here.

With Neurl4, how do the results read?
combined z-score class: no change with or without drug; viability z-score with doxorubicin: -0.45; viability z-score without drug: -1.52

With Dffb, what was measured?
combined z-score class: no change with or without drug; viability z-score with doxorubicin: 0.67; viability z-score without drug: -0.17

For Trappc6a, how do the results read?
combined z-score class: no change with or without drug; viability z-score with doxorubicin: -0.67; viability z-score without drug: 0.84

What did the screen give for Napsa?
combined z-score class: low cell count with and without drug; viability z-score with doxorubicin: -3.15; viability z-score without drug: -3.2

Which result is listed for A630031M04Rik?
combined z-score class: no change with or without drug; viability z-score with doxorubicin: -0.22; viability z-score without drug: -1.52

What did the screen give for Amdhd2?
combined z-score class: no change with or without drug; viability z-score with doxorubicin: -0.45; viability z-score without drug: -0.17

What did the screen give for Psrc1?
combined z-score class: no change with or without drug; viability z-score with doxorubicin: -1.12; viability z-score without drug: -0.17

With Btn1a1, how do the results read?
combined z-score class: no change with or without drug; viability z-score with doxorubicin: 0; viability z-score without drug: -1.18

Which result is listed for Slc24a4?
combined z-score class: no change with or without drug; viability z-score with doxorubicin: -1.57; viability z-score without drug: 0.17

What is on record for Entpd1?
combined z-score class: no change with or without drug; viability z-score with doxorubicin: -1.57; viability z-score without drug: -0.67

What did the screen give for Esrra?
combined z-score class: no change with or without drug; viability z-score with doxorubicin: 1.35; viability z-score without drug: 1.18

With Syt9, what was measured?
combined z-score class: no change with or without drug; viability z-score with doxorubicin: 0.22; viability z-score without drug: -1.18

An excerpt from above, reduced to “viability z-score without drug”:
Esrra: 1.18
Syt9: -1.18
